Reference: PubChem BioAssay AID2662 (National Center for Advancing Translational Sciences (NCATS), 2010)
Screen size: about 290,000 compounds; about 110 (0.038%) were called active. The inconclusive results got no clear call from the source; some entries with a clear call stand among them for comparison. The call rests on the fitted dose curve; in most records, active means well fitted inhibition curve with a large enough effect in the polarisation, with a control signal flat (not every such curve was filed as active); inconclusive means small, poorly fitted or top-dose-only effect, or effect the other way, or a change in a side signal; inactive means no such curve, though single readings can be large or run the other way; the % refers to the polarisation. Potencies of inconclusive entries are doubtful fits and often do not repeat. A note “side channel” means that the fit belongs to a control or component signal, not to the main read-out.

Amino acid sequences for entries named in this document (tags omitted).
UniProt Q03164, whole entry, looked up: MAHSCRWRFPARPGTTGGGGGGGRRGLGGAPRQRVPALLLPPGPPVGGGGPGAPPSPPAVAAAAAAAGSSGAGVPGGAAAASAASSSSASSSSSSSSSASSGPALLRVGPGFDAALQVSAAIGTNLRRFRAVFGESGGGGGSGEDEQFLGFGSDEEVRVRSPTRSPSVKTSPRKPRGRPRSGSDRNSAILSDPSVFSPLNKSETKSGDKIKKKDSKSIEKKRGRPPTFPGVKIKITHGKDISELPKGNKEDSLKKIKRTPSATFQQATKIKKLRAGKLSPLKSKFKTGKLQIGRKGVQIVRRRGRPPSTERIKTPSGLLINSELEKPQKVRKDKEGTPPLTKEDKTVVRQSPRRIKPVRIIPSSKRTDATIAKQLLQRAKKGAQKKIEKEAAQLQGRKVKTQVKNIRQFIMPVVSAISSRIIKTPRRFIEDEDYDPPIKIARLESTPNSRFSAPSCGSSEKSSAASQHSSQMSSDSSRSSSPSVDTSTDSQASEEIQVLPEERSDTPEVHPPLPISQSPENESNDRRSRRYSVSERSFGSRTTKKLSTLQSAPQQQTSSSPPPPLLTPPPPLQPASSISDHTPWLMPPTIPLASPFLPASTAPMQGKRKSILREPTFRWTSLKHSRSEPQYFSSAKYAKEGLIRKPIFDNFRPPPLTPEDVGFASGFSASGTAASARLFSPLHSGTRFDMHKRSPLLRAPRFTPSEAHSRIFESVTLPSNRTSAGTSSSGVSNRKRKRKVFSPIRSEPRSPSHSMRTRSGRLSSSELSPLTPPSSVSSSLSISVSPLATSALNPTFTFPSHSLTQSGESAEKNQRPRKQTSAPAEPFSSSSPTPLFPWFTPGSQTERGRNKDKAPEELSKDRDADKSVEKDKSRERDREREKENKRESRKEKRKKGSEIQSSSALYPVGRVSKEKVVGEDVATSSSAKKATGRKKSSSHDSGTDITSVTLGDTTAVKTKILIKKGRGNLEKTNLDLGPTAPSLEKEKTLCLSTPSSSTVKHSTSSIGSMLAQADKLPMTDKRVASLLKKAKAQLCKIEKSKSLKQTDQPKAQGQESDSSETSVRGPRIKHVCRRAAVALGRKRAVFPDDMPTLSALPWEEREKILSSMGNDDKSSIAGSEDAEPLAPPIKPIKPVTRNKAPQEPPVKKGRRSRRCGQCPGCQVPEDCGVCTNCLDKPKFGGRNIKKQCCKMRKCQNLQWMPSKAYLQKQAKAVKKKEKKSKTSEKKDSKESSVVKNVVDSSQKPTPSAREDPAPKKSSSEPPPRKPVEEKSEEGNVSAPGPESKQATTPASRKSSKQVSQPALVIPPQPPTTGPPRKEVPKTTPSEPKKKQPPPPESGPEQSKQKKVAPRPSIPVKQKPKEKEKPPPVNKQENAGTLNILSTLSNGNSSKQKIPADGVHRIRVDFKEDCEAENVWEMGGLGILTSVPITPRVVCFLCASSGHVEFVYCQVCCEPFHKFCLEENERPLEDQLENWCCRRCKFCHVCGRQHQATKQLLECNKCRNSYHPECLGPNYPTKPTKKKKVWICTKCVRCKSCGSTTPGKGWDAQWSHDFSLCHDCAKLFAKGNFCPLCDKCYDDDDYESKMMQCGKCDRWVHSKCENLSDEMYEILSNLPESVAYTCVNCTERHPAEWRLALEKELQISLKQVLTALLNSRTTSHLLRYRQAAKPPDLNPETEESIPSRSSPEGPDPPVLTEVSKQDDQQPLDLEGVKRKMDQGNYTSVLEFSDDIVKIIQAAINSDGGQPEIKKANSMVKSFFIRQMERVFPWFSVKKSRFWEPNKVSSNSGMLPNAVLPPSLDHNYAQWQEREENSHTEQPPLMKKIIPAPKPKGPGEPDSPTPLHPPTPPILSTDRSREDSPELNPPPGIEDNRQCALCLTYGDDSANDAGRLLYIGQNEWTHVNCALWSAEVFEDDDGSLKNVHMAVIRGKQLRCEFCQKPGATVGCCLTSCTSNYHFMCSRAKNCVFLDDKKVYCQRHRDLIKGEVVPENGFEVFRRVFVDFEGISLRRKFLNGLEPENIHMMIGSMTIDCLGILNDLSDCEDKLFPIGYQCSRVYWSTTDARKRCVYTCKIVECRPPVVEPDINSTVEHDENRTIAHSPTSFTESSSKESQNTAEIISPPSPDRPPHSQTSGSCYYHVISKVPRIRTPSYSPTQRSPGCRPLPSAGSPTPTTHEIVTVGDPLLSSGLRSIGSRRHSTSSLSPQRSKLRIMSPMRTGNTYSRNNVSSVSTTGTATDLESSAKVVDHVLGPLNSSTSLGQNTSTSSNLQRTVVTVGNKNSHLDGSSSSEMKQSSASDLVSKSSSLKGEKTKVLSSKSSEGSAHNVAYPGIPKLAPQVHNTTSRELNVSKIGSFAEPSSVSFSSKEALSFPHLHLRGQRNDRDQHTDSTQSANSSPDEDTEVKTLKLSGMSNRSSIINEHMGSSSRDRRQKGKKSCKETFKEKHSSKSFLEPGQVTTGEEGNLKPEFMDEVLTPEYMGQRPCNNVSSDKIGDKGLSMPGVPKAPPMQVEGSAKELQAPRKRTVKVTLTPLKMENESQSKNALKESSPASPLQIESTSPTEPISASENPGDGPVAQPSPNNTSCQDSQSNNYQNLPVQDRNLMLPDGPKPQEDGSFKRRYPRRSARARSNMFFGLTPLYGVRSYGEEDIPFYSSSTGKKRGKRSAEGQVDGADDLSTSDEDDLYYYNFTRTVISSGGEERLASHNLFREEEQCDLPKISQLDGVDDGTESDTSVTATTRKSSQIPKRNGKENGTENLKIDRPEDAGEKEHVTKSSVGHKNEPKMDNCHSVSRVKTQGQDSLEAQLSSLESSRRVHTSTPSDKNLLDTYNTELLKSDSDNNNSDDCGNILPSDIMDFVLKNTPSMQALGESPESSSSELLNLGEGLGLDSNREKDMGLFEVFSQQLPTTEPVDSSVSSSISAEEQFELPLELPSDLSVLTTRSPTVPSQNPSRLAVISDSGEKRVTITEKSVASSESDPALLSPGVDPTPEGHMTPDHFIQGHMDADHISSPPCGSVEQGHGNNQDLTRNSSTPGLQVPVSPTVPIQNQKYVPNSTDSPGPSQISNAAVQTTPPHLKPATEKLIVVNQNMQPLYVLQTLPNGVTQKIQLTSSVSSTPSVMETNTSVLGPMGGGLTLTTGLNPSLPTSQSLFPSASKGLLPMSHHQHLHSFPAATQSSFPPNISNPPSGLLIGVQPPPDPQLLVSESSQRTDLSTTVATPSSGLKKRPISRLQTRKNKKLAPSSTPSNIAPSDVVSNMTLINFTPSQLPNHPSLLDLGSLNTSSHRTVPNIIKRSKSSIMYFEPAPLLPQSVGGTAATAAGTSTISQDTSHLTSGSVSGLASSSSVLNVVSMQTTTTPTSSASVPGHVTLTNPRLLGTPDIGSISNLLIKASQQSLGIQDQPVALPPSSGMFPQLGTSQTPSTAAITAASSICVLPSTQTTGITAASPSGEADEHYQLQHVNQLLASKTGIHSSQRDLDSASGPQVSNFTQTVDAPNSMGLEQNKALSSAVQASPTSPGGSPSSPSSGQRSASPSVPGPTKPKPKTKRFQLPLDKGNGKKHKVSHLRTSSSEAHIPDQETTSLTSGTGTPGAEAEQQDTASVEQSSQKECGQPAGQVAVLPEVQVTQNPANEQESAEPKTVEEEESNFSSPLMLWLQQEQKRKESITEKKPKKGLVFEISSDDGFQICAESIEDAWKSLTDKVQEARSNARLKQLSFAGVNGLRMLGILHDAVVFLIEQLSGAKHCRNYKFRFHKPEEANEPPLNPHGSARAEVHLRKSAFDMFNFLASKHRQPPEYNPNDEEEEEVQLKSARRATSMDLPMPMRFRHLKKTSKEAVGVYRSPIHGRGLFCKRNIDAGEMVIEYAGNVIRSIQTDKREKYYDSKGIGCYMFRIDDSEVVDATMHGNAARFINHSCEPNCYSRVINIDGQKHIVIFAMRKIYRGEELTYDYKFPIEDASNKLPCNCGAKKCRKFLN

What follows are compounds tested against Histone-lysine N-methyltransferase 2A (Homo sapiens) (UniProt Q03164) (assay: qHTS Fluorescence Polarization Assay for Inhibitors of MLL CXXC domain - DNA interaction). Settings: MLL-CXXC / FITC-HOXA9 DNA fluorescence polarization; activity change, negative = inhibition: at 115 µM (top of the series).
Summary of the method: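 Purified MLL-CXXC (added from a 7 uM solution) was preincubated 5 min at ambient with pinned compounds in 50 mM Tris-HCl pH 7.5, 50 mM NaCl, 1 mM DTT, 0.05% BSA. Fluorescein-labeled HOX-A9 DNA (50 nM solution) followed, 30 min, then polarization read.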
Potency means the concentration at half of the fitted maximal effect.

Structure (SMILES) | activity change, negative = inhibition | Potency
COc1ccc(S(=O)(=O)N(NC2=NS(=O)(=O)c3ccccc32)C(=O)C(C)C)cc1 | inactive: -2.39% | 
CN(C)c1nc(Cl)nc(N(C#N)CCOc2ccccc2)n1 | inactive: 7.95% | 
CN1C(=O)/C(=C\c2ccc(N(C)C)cc2)OC1=S |  | inconclusive: 2.82 µM [fluorescent, side channel, full curve]
CC(C)c1ccc(NC(=O)NCc2ccc3c(c2)OCO3)cc1 |  | inconclusive: 14.1 µM [quencher, side channel, single point]
CCN(CC(=O)N1CCN(Cc2ccccc2)CC1)S(=O)(=O)c1ccc(F)cc1 |  | inconclusive: 14.1 µM [fluorescent, side channel, single point]
O=C(NCCCCc1ccccc1)Nc1ccc(F)cc1 |  | inconclusive: 14.1 µM [fluorescent, side channel, single point]
COC(=O)CC1=NN(c2ccccc2)C(=O)/C1=C\c1ccc(OC)cc1 |  | inconclusive: 50.1 µM [inhibitor, partial curve]
Cc1cccc(C(=O)Nc2nnc(-c3ccco3)o2)c1 |  | inconclusive: 89.1 µM [quencher, side channel, single point]
COC1=C/C(=C/c2c(N)n3nc(-c4ccc(C)cc4)sc3nc2=O)C=CC1=O |  | inconclusive: 11.2 µM [fluorescent, side channel, partial curve]
COc1ccc(Nc2nc(N3CCCCC3)c3ccccc3n2)cc1 |  | inconclusive: 25.1 µM [quencher, side channel, partial curve]
COC(=O)c1c(N)sc(Cc2ccccc2)c1C | inactive: -10.7% | 
CC(C)CNC(=O)c1cnn2c(C(F)(F)F)cc(C(F)(F)F)nc12 | inactive: 3.02% | 
Cc1cccc(C(=O)NC(=S)N(C)C2CCCCC2)c1 |  | inconclusive: 11.2 µM [fluorescent, side channel, single point]
Cc1ccsc1C1C=C(c2cccc(Br)c2)Nc2ncnn21 (centres undefined) |  | inconclusive: 39.8 µM [fluorescent, side channel, single point]
CC(=O)c1cccc(NC(=O)CCNC(=O)c2ccccc2Cl)c1 |  | inconclusive: 17.8 µM [fluorescent, side channel, partial curve]
CCCCc1cn([C@@H](CCCCN)C(=O)N2CCNCC2)nn1 |  | inconclusive: 39.8 µM [inhibitor, partial curve]
Cc1ccc(C(=O)CN(Cc2ccccc2)C2=NCCS2)cc1 |  | inconclusive: 70.8 µM [quencher, side channel, single point]
CCOC(=O)c1cccc(NC(=O)CN2C(=O)C3CC=CCC3C2=O)c1 (centres undefined) |  | inconclusive: 7.94 µM [quencher, side channel, partial curve]
Cc1cc(C)c(C(=O)COC(=O)CCNS(=O)(=O)c2c(Cl)cccc2Cl)cc1C |  | inconclusive: 31.6 µM [fluorescent, side channel, single point]
O=C(Nc1ccc2c(c1)C(=O)N(CC1CCCO1)C2=O)c1cccc(Br)c1 (centres undefined) |  | inconclusive: 6.31 µM [quencher, side channel, full curve, poor fit]

Structure (SMILES) | activity change, negative = inhibition | Potency
CCn1c(C)nc2cc(C(=O)NNC(=O)CCC3CCCC3)ccc21 |  | inconclusive: 31.6 µM [fluorescent, side channel, single point]
O=C(COc1ccc2oc(-c3ccco3)cc(=O)c2c1)N1CCCCC1 |  | inconclusive: 50.1 µM [fluorescent, side channel, single point]
Cc1ccccc1C(=O)Nc1c(C(=O)N(CCN(C)C)Cc2ccco2)oc2ccccc12 | inactive: -3.15% | 
Cc1ccc(Cn2nnnc2CN2CCC(c3nc4ccc(Cl)cc4[nH]3)CC2)cc1 | inactive: 6.19% | 
CN(C)CCc1cc2c(c3c1ccc1ccccc13)OCO2 |  | inconclusive: 31.6 µM [quencher, side channel, single point]
Cc1ccc(Nc2ncc3c(n2)CC(C)CC3=O)c(C)c1 (centres undefined) |  | inconclusive: 28.2 µM [inhibitor, partial curve, poor fit]
Cc1nc(Cl)c2c(n1)NC1=C(O2)C(=O)CCC1 |  | inconclusive: 39.8 µM [fluorescent, side channel, partial curve]
COc1cc(/C=C2\C(=O)N(c3ccccc3)N=C2C)ccc1Oc1ccc([N+](=O)[O-])cc1[N+](=O)[O-] |  | inconclusive: 14.1 µM [fluorescent, side channel, single point]
Cc1ccc(O)c(-c2cc(-c3ccccc3[N+](=O)[O-])[nH]n2)c1 |  | inconclusive: 14.1 µM [inhibitor, single point]
COc1ccc(C2C(C(C)=O)=C(C)N=c3s/c(=C\c4cc(C)n(C)c4C)c(=O)n32)c(OC)c1 (centres undefined) |  | inconclusive: 2.82 µM [fluorescent, side channel, full curve]
Cc1ccc(C(C2=C(O)CC(C)(C)CC2=O)C2C(=O)CC(C)(C)CC2=O)o1 (centres undefined) |  | inconclusive: 31.6 µM [inhibitor, partial curve]
COc1ccccc1OCC(=O)N/N=C/c1cccc2cccnc12 | inactive: -5.02% | 
COc1ccccc1COCC(O)CNCCc1ccc(C(F)(F)F)cc1 (centres undefined) | inactive: 13.1% | 
COc1ccc(N/C=C2\C(=O)CCc3c2oc2cc(Cl)c(O)c(Cl)c32)cc1 |  | inconclusive: 39.8 µM [fluorescent, side channel, single point]
Cc1ccc(C2=NN(C(=O)CCCC(=O)O)C(c3ccco3)C2)cc1 (centres undefined) |  | inconclusive: 35.5 µM [inhibitor, partial curve]
CN(C(=O)C(=O)c1cn(CC(=O)N2CCCC2)c2ccccc12)C1CCCCC1 |  | inconclusive: 14.1 µM [quencher, side channel, single point]
COc1ccc(-c2cc3c(=O)n(CC(=O)NCc4cccnc4)nc(C)n3n2)cc1 |  | inconclusive: 70.8 µM [fluorescent, side channel, single point]
COc1ccc(/C=N\NC(=O)c2ccccc2OC)cc1COc1c(F)c(F)c(F)c(F)c1F |  | inconclusive: 15.8 µM [fluorescent, single point]
Cc1ccc(Cl)c(OCC(=O)Nc2cc(S(=O)(=O)N3CCOCC3)ccc2N2CCCC2)c1 |  | inconclusive: 14.1 µM [fluorescent, side channel, single point]
COc1ccc(/C=N/N2C(C)CCCC2C)cc1O (centres undefined) |  | inconclusive: 44.7 µM [fluorescent, side channel, single point]

Single values from the entries so far.
Potency, COc1ccc(Nc2nc(N3CCCCC3)c3ccccc3n2)cc1 is entered as inconclusive: 25.1 µM [quencher, side channel, partial curve]
Potency, COc1ccc(C2C(C(C)=O)=C(C)N=c3s/c(=C\c4cc(C)n(C)c4C)c(=O)n32)c(OC)c1 (centres undefined) is entered as inconclusive: 2.82 µM [fluorescent, side channel, full curve]
Potency, O=C(NCCCCc1ccccc1)Nc1ccc(F)cc1 is entered as inconclusive: 14.1 µM [fluorescent, side channel, single point]

Additional entries:

Structure (SMILES) | activity change, negative = inhibition | Potency
COc1ccc(N2CCN(c3ccc(N4C(=O)CC(C)C4=O)cc3[N+](=O)[O-])CC2)cc1 (centres undefined) | inactive: 9.23% | 
Cc1ccc2c(CN(C)Cc3cccc(F)c3)cc(=O)oc2c1C |  | inconclusive: 44.7 µM [fluorescent, side channel, single point]
COc1ccc(N=Cc2cc3c(cc2O)OC(N)=C(C#N)C3c2ccccc2)cc1 (centres undefined) |  | inconclusive: 39.8 µM [fluorescent, side channel, single point]
NC(=O)C(=O)N/N=C/c1c2ccccc2cc2ccccc12 |  | inconclusive: 79.4 µM [fluorescent, side channel, single point]
O=C1NC(=Nc2ccccc2)SC1Cc1ccccc1 (centres undefined) |  | inconclusive: 44.7 µM [fluorescent, side channel, single point]
Brc1ccc(OCc2nnnn2-c2ccccc2)cc1 |  | inconclusive: 12.6 µM [fluorescent, side channel, full curve]
CCOC(=O)c1c(NC(=O)CSc2nnnn2-c2ccccc2)sc2c1CC(C)(C)NC2(C)C |  | inconclusive: 31.6 µM [quencher, side channel, partial curve]
CC(C)(C)NS(=O)(=O)c1ccc2[nH]c3c(c2c1)CCCCC3 |  | inconclusive: 8.91 µM [inhibitor, single point]
C=C(C)c1cccc(C(C)(C)NC(=O)Nc2ccc(C(N)=O)cc2)c1 | inactive: -2.31% | 
CO[C@@H]1C[C@H](O[C@H]2[C@@H](C)[C@H](O[C@@H]3O[C@@H](C)C[C@@H](N(C)C)[C@@H]3OC(C)=O)[C@H](C)C[C@]3(CO3)C(=O)[C@H](C)[C@H](OC(C)=O)[C@H](C)[C@H](C)OC(=O)[C@@H]2C)O[C@H](C)[C@@H]1OC(C)=O | inactive: 1.15% [at 51.4 µM] | 
CCC(=O)NC1=C(Cl)C(=O)C(NC(=O)CC)=C(Cl)C1=O | inactive: -1.77% | 
NC(=O)CC1Nc2cccc3cccc(c23)NC1=O (centres undefined) | inactive: -2.61% | 
CCCN1C(=O)c2cccc3c(N4CCCCC4)ccc(c23)C1=O |  | inconclusive: 12.6 µM [fluorescent, side channel, partial curve]
O=c1cc2c(nn1Cc1cccc([N+](=O)[O-])c1)-c1ccccc1CC2 |  | inconclusive: 10 µM [inhibitor, single point]
O=C(Cc1c(F)cccc1Cl)NNC(=O)Nc1ccc2c(c1)OCO2 |  | inconclusive: 10 µM [fluorescent, side channel, single point]
O=C(C(=S)N1CCOCC1)c1c[nH]c2ccccc12 |  | inconclusive: 70.8 µM [inhibitor, single point]
O=C1Nc2cc(Cl)c(Cl)cc2N(O)N1c1cc(Cl)cc(Cl)c1 |  | inconclusive: 28.2 µM [inhibitor, partial curve]
COc1ccc(OC)c(NC(=O)CSc2nc(-c3ccccc3)cc(=O)[nH]2)c1 |  | inconclusive: 11.2 µM [fluorescent, side channel, single point]
COC(=O)c1ccc(CN(c2ccc(C(=O)O)c(O)c2)S(=O)(=O)c2ccc(Cl)c([N+](=O)[O-])c2)cc1 |  | inconclusive: 79.4 µM [fluorescent, side channel, single point]
